Measurements: US20240279288A1, “APPLICATION OF PLANT JAZ PROTEINS AND DERIVED POLYPEPTIDES IN PREVENTION AND TREATMENT OF HUMAN AND ANIMAL TUMORS” (ANYANG INSTITUTE OF SINO-COTTON INDUSTRY INNOVATION, priority 2021, published 2024)
Results are given in words; binding and its absence hold for the method and conditions named. For some of these results: In cells and extracts the contact can be indirect. Some results given as binding are weak or reduced against the parent protein; the word gives no strength.

By UniProt entry, the sequences of proteins in these tests, tags left out. Residues count along the entry.
UniProt Q03405, residues 23-335: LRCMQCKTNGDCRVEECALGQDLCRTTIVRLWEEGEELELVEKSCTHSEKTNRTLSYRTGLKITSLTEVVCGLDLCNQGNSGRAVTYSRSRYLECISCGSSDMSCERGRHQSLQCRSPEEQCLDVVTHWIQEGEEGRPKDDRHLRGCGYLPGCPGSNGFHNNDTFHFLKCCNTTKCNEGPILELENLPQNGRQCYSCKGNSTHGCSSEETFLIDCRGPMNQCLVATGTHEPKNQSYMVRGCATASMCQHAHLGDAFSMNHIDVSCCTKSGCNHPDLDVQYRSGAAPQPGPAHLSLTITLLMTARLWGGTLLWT

What was measured:
uPAR [1] = target: uPAR (UniProt Q03405); experiment: CO-IP
uPAR [2] = target: uPAR (UniProt Q03405); experiment: CO-IP (FIG. 10B)
ATF domain of uPA = ATF domain of uPA (UniProt P00749); experiment: yeast two hybrid
uPAR [3] = target: uPAR (UniProt Q03405); experiment: yeast two hybrid screen of tumor surface receptors

binding (uPAR [1]): binds | binding (uPAR [2]): binds | binding (ATF domain of uPA): binds | binding (uPAR [3]): binds
B1: GhJAZ1 (protein)
chain: MSSCSESTAMKPARSPEKPSFAQTCNLLSQYLKEKGSFGDLSLGMTCNVEANGTPVVPPPTMNLFPLNDKSDDVCGRNGGNPKNLTSMDLFPQQAGLASKDDSPNKLEPQTAPMTIFYGGQVIVFNDFPANKAKEIMLLASNSSSQSNNSFNPIPFTSSIARSPIESSIGVPPTSKPVHPAQRAVPGDLPIARRASLHRFLEKRKDRITAKAPYQINNSAAAPSLSGDNKSWLGLAAQSP
